These results are taken from patent US20220087990A1, “APPLICATION OF RIFAMYCIN-QUINOLIZIDONE CONJUGATE MOLECULE AND PHARMACEUTICALLY ACCEPTABLE SALT THEREOF” (priority 2019, published 2022).

The test system of this data set is Staphylococcus aureus CB1406 (wild type). It counts as in vivo, Staphylococcus aureus; Balb/c mice. The protocol:
Test Drug: rifamycin-quinolizidone conjugate molecule I was provided by TenNor Therapeutics, Ltd., and was stored at −20° C. Other test compounds and reagents are commercially available. […] For remaining test agents, aqueous vehicles of sterile water, 5% sodium bicarbonate or 0.9% normal saline were added to the compound shown in formula I. The rifamycin-quinolizidone conjugate molecule formulation shown in formula I was administered at 30 mg/kg.
Bacteria: The bacteria used were biofilm forming Staphylococcus aureus strains. […] Minimal inhibit concentrations (MICs) were determined by broth microdilution assays recommended by CLSI. […]
Formation and treatments of subcutaneous implant infections: the mice were anesthetized with isoflurane vapors (4 L/min). […] The mice were returned to their cages and regularly monitored for adverse reactions. […] Implant-associated bacteria were monitored by sampling colonized catheter segments during the course of implant surgeries and at regular intervals for up to 28 days post infection.
Sampling of infected implants: infected mice were euthanized by CO2 inhalation, then flanks were sterilized with 70% ethanol, and the infected catheter segments were excised into 1 mL of phosphate buffered saline pH 7.2 (1×PBS). […] Explanted samples were then snap frozen in dry ice/ethanol and stored at −80° C. until CFU counts were determined. […]

As for `CO[C@H]1/C=C/O[C@@]2(C)Oc3c(C)c(O)c4c(O)c(c(/C=N/N5CCC(N(C)C6([C@@H]7CCN(c8c(F)cn9c(=O)c(C(=O)O)cc(C%10CC%10)c9c8C)C7)CC6)CC5)c(O)c4c3C2=O)NC(=O)/C(C)=C\C=C\[C@H](C)[C@H](O)[C@@H](C)[C@@H](O)[C@@H](C)[C@H](OC(C)=O)[C@@H]1C` [I], the “resistance development to rifampicin or I (growth of recovered isolates on antibiotic containing plates)” value (14-day treatment) is “No resistance development”. Besides, the “resistance to rifampicin or I” value (rebound regimen, all sampling points) is listed as “No resistance to rifampicin or I was observed”.
